For this experiment, the target named is Flag-Rbbp5, Q15291. Kind of experiment: co-IP; Flag-tagged proteins expressed in 293T cells and immunoprecipitated with anti-Flag antibody; endogenous partners detected by western blot. The note with it: remark: other sources report otherwise.

Results are given in words; binding and its absence hold for the method and conditions named. Binding seen in cells or lysates may run through a third protein.

B1: Pask, endogenous in HEK293T cells, Q96RG2 1-1323 (enzyme)
chain: MEDGGLTAFEEDQRCLSQSLPLPVSAEGPAAQTTAEPSRSFSSAHRHLSRRNGLSRLCQSRTALSEDRWSSYCLSSLAAQNICTSKLHCPAAPEHTDPSEPRGSVSCCSLLRGLSSGWSSPLLPAPVCNPNKAIFTVDAKTTEILVANDKACGLLGYSSQDLIGQKLTQFFLRSDSDVVEALSEEHMEADGHAAVVFGTVVDIISRSGEKIPVSVWMKRMRQERRLCCVVVLEPVERVSTWVAFQSDGTVTSCDSLFAHLHGYVSGEDVAGQHITDLIPSVQLPPSGQHIPKNLKIQRSVGRARDGTTFPLSLKLKSQPSSEEATTGEAAPVSGYRASVWVFCTISGLITLLPDGTIHGINHSFALTLFGYGKTELLGKNITFLIPGFYSYMDLAYNSSLQLPDLASCLDVGNESGCGERTLDPWQGQDPAEGGQDPRINVVLAGGHVVPRDEIRKLMESQDIFTGTQTELIAGGQLLSCLSPQPAPGVDNVPEGSLPVHGEQALPKDQQITALGREEPVAIESPGQDLLGESRSEPVDVKPFASCEDSEAPVPAEDGGSDAGMCGLCQKAQLERMGVSGPSGSDLWAGAAVAKPQAKGQLAGGSLLMHCPCYGSEWGLWWRSQDLAPSPSGMAGLSFGTPTLDEPWLGVENDREELQTCLIKEQLSQLSLAGALDVPHAELVPTECQAVTAPVSSCDLGGRDLCGGCTGSSSACYALATDLPGGLEAVEAQEVDVNSFSWNLKELFFSDQTDQTSSNCSCATSELRETPSSLAVGSDPDVGSLQEQGSCVLDDRELLLLTGTCVDLGQGRRFRESCVGHDPTEPLEVCLVSSEHYAASDRESPGHVPSTLDAGPEDTCPSAEEPRLNVQVTSTPVIVMRGAAGLQREIQEGAYSGSCYHRDGLRLSIQFEVRRVELQGPTPLFCCWLVKDLLHSQRDSAARTRLFLASLPGSTHSTAAELTGPSLVEVLRARPWFEEPPKAVELEGLAACEGEYSQKYSTMSPLGSGAFGFVWTAVDKEKNKEVVVKFIKKEKVLEDCWIEDPKLGKVTLEIAILSRVEHANIIKVLDIFENQGFFQLVMEKHGSGLDLFAFIDRHPRLDEPLASYIFRQLVSAVGYLRLKDIIHRDIKDENIVIAEDFTIKLIDFGSAAYLERGKLFYTFCGTIEYCAPEVLMGNPYRGPELEMWSLGVTLYTLVFEENPFCELEETVEAAIHPPYLVSKELMSLVSGLLQPVPERRTTLEKLVTDPWVTQPVNLADYTWEEVFRVNKPESGVLSAASLEMGNRSLSDVAQAQELCGGPVPGEAPNGQGCLHPGDPRLLTS
B1: the binding entry is recorded as “no binding”.

These data come from article PMC5035144.
